PubChem BioAssay AID504804 | Drosophila RNAi Screening Center | 2011
The deposit covers about 19,000 reagents; shown is an unselected part of those with a known target gene and a result. Of all reagents, 47 (0.25%) were called active. 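Signals are raw, not normalised; exact z-scores behind calls not deposited; actives needed confirmation, so some wells reaching 2 SD are inactive.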

- Test: 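dsRNAs that improve Kc cell survival under doxorubicin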 (primary screen)
- Cell system: Drosophila Kc cells
- Knock-down reagent: long dsRNA against Drosophila genes, 0.5 µg dsRNA per well
- Time to read-out: 96 h (48 h knock-down, then 48 h drug)
- Challenge: doxorubicin 5 µg/ml for 48 h, added 48 h after dsRNA
- Measured: 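Viability measured as cellular ATP by luminescence after 48 h knock-down then 48 h doxorubicin at 5 µg/ml; unnormalised plate counts for each replicate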
- Scale: raw ATP luminescence: higher = more viable cells, protection from doxorubicin
- Rule for the call: 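Active when both duplicate wells lie at least 2 SD above the plate mean and protection is confirmed by rescreening and independent dsRNAs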

gene knocked down | amplicon | raw ATP luminescence, replicate 1 | raw ATP luminescence, replicate 2 | call
Fbxl7 (GeneID 41935) | DRSC15553 | 58650 | 78650 | inactive
Corin (GeneID 35691) | DRSC06818 | 40297 | 70163 | inactive
CG13059 (GeneID 39803) | DRSC09942 | 45383 | 30040 | inactive
CG11898 (GeneID 43451) | DRSC14432 | 33120 | 46110 | inactive
CG3961 (GeneID 40056) | DRSC10390 | 18047 | 26997 | inactive
CG3961 (GeneID 40056) | DRSC10391 | 44737 | 36140 | inactive
Psf2 (GeneID 33641) | DRSC00516 | 18557 | 19690 | inactive
Asph (GeneID 36778) | DRSC07171 | 49423 | 69343 | inactive
CG13282 (GeneID 35019) | DRSC02254 | 74603 | 75427 | inactive
Cyt-c1L (GeneID 43457) | DRSC14860 | 34380 | 31380 | inactive
Stoml2 (GeneID 37807) | DRSC04326 | 94967 | 81300 | inactive
Hsp60B (GeneID 48572) | DRSC00542 | 1.08e5 | 71233 | inactive
koi (GeneID 35594) | DRSC04980 | 44860 | 77523 | inactive
CG7131 (GeneID 42197) | DRSC16203 | 80837 | 64727 | inactive
Sfxn2 (GeneID 40080) | DRSC10718 | 64650 | 60720 | inactive
Cyp12e1 (GeneID 41272) | DRSC16622 | 59103 | 62153 | inactive
CG15199 (GeneID 32051) | DRSC19646 | 4.05e5 | 3.42e5 | inactive
CG17377 (GeneID 33954) | DRSC00950 | 3.41e5 | 3.16e5 | inactive
CG17377 (GeneID 33954) | DRSC02615 | 1.02e5 | 93833 | inactive
CG9921 (GeneID 32599) | DRSC20220 | 1.61e5 | 1.94e5 | inactive
Pgant5 (GeneID 326151) | DRSC03149 | 1.05e5 | 85160 | inactive
Flo1 (GeneID 36726) | DRSC07427 | 82000 | 87227 | inactive
CG34429 (GeneID 5740606) | DRSC10120 | 77580 | 1.63e5 | inactive
CG16904 (GeneID 41212) | DRSC15161 | 48743 | 33270 | inactive
sqd (GeneID 41666) | DRSC15160 | 1.08e5 | 94730 | inactive
sqd (GeneID 41666) | DRSC17066 | 1.37e5 | 1.83e5 | inactive
eEF1beta (GeneID 45249) | DRSC07419 | 66677 | 67680 | inactive
iPLA2-VIA (GeneID 39160) | DRSC10699 | 38423 | 35460 | inactive
CG14965 (GeneID 38388) | DRSC08424 | 39930 | 26310 | inactive
laf (GeneID 40606) | DRSC12246 | 54410 | 56377 | inactive
CG6495 (GeneID 34486) | DRSC01993 | 69403 | 56890 | inactive
stretch (retired record) (GeneID 46211) | DRSC14347 | 25353 | 30450 | inactive
stretch (retired record) (GeneID 46211) | DRSC14512 | 46350 | 45290 | inactive
stretch (retired record) (GeneID 46211) | DRSC14541 | 50283 | 46353 | inactive
stretch (retired record) (GeneID 46211) | DRSC14542 | 46153 | 46193 | inactive
stretch (retired record) (GeneID 46211) | DRSC14543 | 44147 | 45580 | inactive
CG15464 (retired record) (GeneID 31436) | DRSC18047 | 46080 | 45560 | inactive
NaPi-III (GeneID 39255) | DRSC10893 | 45710 | 43163 | inactive
NaPi-III (GeneID 39255) | DRSC10894 | 67387 | 45507 | inactive
CG13124 (GeneID 34310) | DRSC02220 | 85133 | 74193 | inactive
Rsph9 (GeneID 318950) | DRSC01594 | 3.42e5 | 2.61e5 | inactive
Adgf-B (GeneID 39975) | DRSC10568 | 34380 | 31560 | inactive
l(1)G0196 (GeneID 33137) | DRSC20591 | 2.39e5 | 2.45e5 | inactive
l(1)G0196 (GeneID 33137) | DRSC20629 | 3.75e5 | 2.92e5 | inactive
RnpS1 (GeneID 41147) | DRSC15154 | 52663 | 29733 | inactive
hid (GeneID 40009) | DRSC11316 | 35203 | 35800 | inactive
CG14646 (GeneID 40555) | DRSC12232 | 17033 | 21840 | inactive

An excerpt from above, reduced to “raw ATP luminescence, replicate 2”:
iPLA2-VIA (GeneID 39160) [DRSC10699]	35460
CG14965 (GeneID 38388) [DRSC08424]	26310
laf (GeneID 40606) [DRSC12246]	56377
CG6495 (GeneID 34486) [DRSC01993]	56890
stretch (retired record) (GeneID 46211) [DRSC14347]	30450

More reagents:
gene knocked down | amplicon | raw ATP luminescence, replicate 1 | raw ATP luminescence, replicate 2 | call
CG15764 (GeneID 31516) | DRSC18070 | 36620 | 44360 | inactive
Pbp95 (GeneID 40949) | DRSC15448 | 54373 | 53877 | inactive
dbe (GeneID 33269) | DRSC00811 | 1.06e5 | 58873 | inactive
CG42729 (GeneID 3885667) | DRSC10236 | 56030 | 49543 | inactive
BG642163 (GeneID 4379888) | DRSC00342 | 33223 | 31510 | inactive
BG642163 (GeneID 4379888) | DRSC00343 | 25390 | 37600 | inactive
Hrs (GeneID 33458) | DRSC00549 | 91620 | 75343 | inactive
CG13999 (GeneID 33826) | DRSC02331 | 24283 | 24737 | inactive
Myo10A (GeneID 32028) | DRSC19834 | 3.23e5 | 2.64e5 | inactive
Myo10A (GeneID 32028) | DRSC19837 | 3.23e5 | 3.46e5 | inactive
CG3527 (GeneID 31387) | DRSC18307 | 38640 | 46850 | inactive
REG (GeneID 32274) | DRSC20273 | 3.30e5 | 2.70e5 | inactive
CG17111 (GeneID 42727) | DRSC15174 | 1.05e5 | 79600 | inactive
Ciz1 (GeneID 39161) | DRSC09675 | 67350 | 61470 | inactive
CG5902 (GeneID 42839) | DRSC15912 | 50777 | 50030 | inactive
pea (GeneID 36561) | DRSC07120 | 68013 | 57263 | inactive
RpS3A (GeneID 43768) | DRSC17168 | 25400 | 23220 | inactive
Csgalnact (GeneID 36079) | DRSC06228 | 51500 | 66600 | inactive
CG5265 (GeneID 42074) | DRSC15756 | 65710 | 66150 | inactive
CG17404 (GeneID 41482) | DRSC15234 | 62587 | 49023 | inactive
CG3309 (GeneID 31450) | DRSC18301 | 68300 | 51760 | inactive
CG1695 (GeneID 33046) | DRSC20538 | 4.00e5 | 4.27e5 | inactive
CG6345 (GeneID 41271) | DRSC16024 | 64813 | 55937 | inactive
UQCR-C1 (GeneID 41800) | DRSC15508 | 46183 | 26427 | inactive
Best4 (GeneID 39660) | DRSC10792 | 60333 | 44530 | inactive
mex1 (GeneID 39677) | DRSC11368 | 38220 | 33260 | inactive
Drak (GeneID 32097) | DRSC19778 | 2.92e5 | 2.97e5 | inactive
rut (GeneID 32406) | DRSC20367 | 83420 | 72670 | inactive
tHMG1 (GeneID 42650) | DRSC16181 | 43220 | 45290 | inactive
JhI-21 (GeneID 34624) | DRSC02161 | 1.09e5 | 74153 | inactive
Akr1B (GeneID 39304) | DRSC10581 | 46507 | 38207 | inactive
CG17221 (GeneID 33521) | DRSC00487 | 23780 | 27203 | inactive
Fatp2 (GeneID 37657) | DRSC03971 | 67640 | 80347 | inactive
Fatp2 (GeneID 37657) | DRSC04178 | 60047 | 52137 | inactive
Fatp2 (GeneID 37657) | DRSC04330 | 70657 | 64313 | inactive
tacc (GeneID 40589) | DRSC12019 | 37930 | 48087 | inactive
tacc (GeneID 40589) | DRSC12388 | 21190 | 19317 | inactive
